PubChem BioAssay AID743121, NCATS, 2013

Purpose: 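Knock-downs that sensitise breast cancer cells to camptothecin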 (primary screen)
Cells: MDA-MB-231 cells, a human breast cancer line
Reagents: single siRNA against human genes, 20 nM siRNA (0.8 pmol per well)
Duration: 120 h (drug added 48 h after transfection, read 72 h later)
Challenge: camptothecin 20 nM (about EC30) for 72 h; vehicle 0.1% DMSO in parallel plates
Detection: 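Cell viability by ATP luminescence (CellTiter-Glo) as % of non-targeting siRNA wells, and the log2 ratio of viability without drug over viability with camptothecin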
Direction: log2 vehicle/camptothecin viability: higher = stronger sensitisation to camptothecin; viability with camptothecin: higher = more viable cells
Units: viability with camptothecin in % of control
Hit rule: 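Each gene scored by redundant siRNA activity (RSA) over its individual siRNA ratios; a gene is called active at p < 0.001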
This is one part, drawn at random, of about 26,000 reagents. 167 of all reagents (0.63%) were called active. 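Calls are per gene from RSA p-values that are not deposited; an individual active-marked siRNA can sensitise only weakly.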 A number with no mark means an inactive call. The numbers tell different reagents against one gene apart. Further read-outs or replicates are left out here.

The opening 2 entries, ahead of the listing:
TAMALIN (trafficking regulator and scaffold protein tamalin) #1 → log2 vehicle/camptothecin viability = -0.39; viability with camptothecin = 84.6
TAMALIN (trafficking regulator and scaffold protein tamalin) #2 → log2 vehicle/camptothecin viability = -0.252; viability with camptothecin = 57.1

The list itself, repeating the preview:
TAMALIN (trafficking regulator and scaffold protein tamalin) #1 → log2 vehicle/camptothecin viability = -0.39; viability with camptothecin = 84.6
TAMALIN (trafficking regulator and scaffold protein tamalin) #2 → log2 vehicle/camptothecin viability = -0.252; viability with camptothecin = 57.1
TAMALIN (trafficking regulator and scaffold protein tamalin) #3 → log2 vehicle/camptothecin viability = -0.0573; viability with camptothecin = 58
TAMALIN (trafficking regulator and scaffold protein tamalin) #4 → log2 vehicle/camptothecin viability = -0.731; viability with camptothecin = 50.3
DYRK3 (dual specificity tyrosine phosphorylation regulated kinase 3) #1 → log2 vehicle/camptothecin viability = -0.237; viability with camptothecin = 105
DYRK3 (dual specificity tyrosine phosphorylation regulated kinase 3) #2 → log2 vehicle/camptothecin viability = 0.309; viability with camptothecin = 25.8
DYRK3 (dual specificity tyrosine phosphorylation regulated kinase 3) #3 → log2 vehicle/camptothecin viability = -0.0621; viability with camptothecin = 98.2
DYRK3 (dual specificity tyrosine phosphorylation regulated kinase 3) #4 → log2 vehicle/camptothecin viability = -0.142; viability with camptothecin = 116
IFNA14 (interferon alpha 14) #1 → log2 vehicle/camptothecin viability = -0.0406; viability with camptothecin = 49.6
IFNA14 (interferon alpha 14) #2 → log2 vehicle/camptothecin viability = -0.309; viability with camptothecin = 95.2
IFNA14 (interferon alpha 14) #3 → log2 vehicle/camptothecin viability = -0.276; viability with camptothecin = 66.5
C2 (complement C2) #1 → log2 vehicle/camptothecin viability = -0.0474; viability with camptothecin = 95.3
C2 (complement C2) #2 → log2 vehicle/camptothecin viability = -0.27; viability with camptothecin = 35.6
C2 (complement C2) #3 → log2 vehicle/camptothecin viability = -0.0374; viability with camptothecin = 98.1
C2 (complement C2) #4 → log2 vehicle/camptothecin viability = 0.00564; viability with camptothecin = 1.77
